Source: PubChem BioAssay AID1439 (NMMLSC, 2008)
Out of some 220,000 compounds screened, about 770 (0.35%) were called active. This list was built around the results that the source calls inconclusive (neither active nor inactive); the mix of calls is not that of the screen. No stated cut-off is given here; in the data, active means binding response below about 49% or above about 150%; inconclusive means no clear call, values can overlap the other calls; inactive means in between.

Protein sequences, listed by entry. Tags and fused reporters are not part of them.
UniProt P09471, whole entry, looked up: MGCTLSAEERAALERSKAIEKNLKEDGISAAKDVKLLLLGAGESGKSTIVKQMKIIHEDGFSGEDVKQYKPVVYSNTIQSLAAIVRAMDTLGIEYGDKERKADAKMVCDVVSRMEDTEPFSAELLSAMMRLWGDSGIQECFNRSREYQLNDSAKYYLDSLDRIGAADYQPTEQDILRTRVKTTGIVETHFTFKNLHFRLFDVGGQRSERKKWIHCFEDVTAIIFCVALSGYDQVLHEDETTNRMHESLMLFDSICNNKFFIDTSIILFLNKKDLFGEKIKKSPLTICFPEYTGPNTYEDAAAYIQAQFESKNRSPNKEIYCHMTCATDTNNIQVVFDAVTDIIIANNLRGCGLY

biological target: Guanine nucleotide-binding protein G(o) subunit alpha (Homo sapiens) (UniProt P09471); assay: RGS7-Galphao binding modulators, primary screen, biochemical, multiplexed bead flow cytometry (AID 1439); settings: at 10 µM, actives lie on both sides;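 further: fluorescent Galphao held in activated GDP-AlF4 state binding bead-coupled RGS7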

SMILES	binding response (% of control)
S=C(Nc1ccccc1)N1N=C(c2cccs2)CC1c1cccs1 (stereo not given)	inactive: 97.8%
CCN(CC)CCCNC(=O)CSc1nc2c(c(C(F)(F)F)n1)CCc1ccccc1-2	inconclusive: 96.4%
C=C(C)c1cccc(C(C)(C)NC(=O)N2CCN(c3ccccc3)CC2)c1	inconclusive: 145%
Cc1ccccc1NC(=O)c1cc([N+](=O)[O-])ccc1NCCN1C(=O)CCC1=O	inactive: 112%
O=C(NCCOc1ccc2ccccc2c1)c1cncc(Br)c1	inconclusive: 127%
CN(CC(=O)Nc1cccc(S(=O)(=O)NC2=NCCCCC2)c1)Cc1ccc(C(C)(C)C)cc1	inconclusive: 114%
COc1cccc(CN=c2c([N+](=O)[O-])nn(-c3ccccc3C)n2O)c1	inconclusive: 120%
Cc1ccc(/C=N/NC(=O)CNC(=O)c2ccc(C)c([N+](=O)[O-])c2)o1	inconclusive: 121%
COc1cc(NC(=O)c2cccnc2SC)cc(OC)c1	inconclusive: 99.3%
CC(C)(C)SCCNS(=O)(=O)c1ccc2ccccc2c1	inactive: 99%
CCOc1ccc(C(=O)n2cnnc2N)cc1	inconclusive: 37.5%
COc1ccc(N2C(=O)CSCC2=O)cc1OC	inconclusive: 103%
S=c1[nH]nc(COc2ccccc2)n1/N=C/C=C/c1ccco1	inconclusive: 78.5%
CCOC(=O)c1c(-c2cccc([N+](=O)[O-])c2)cn2ccccc12	inconclusive: 81.2%
CCCS(=O)(=O)Nc1ccc2cn[nH]c2c1	inconclusive: 108%
CCn1c(=O)c2cc(C(=O)Nc3cccc(C(C)=O)c3)sc2c2ccccc21	inconclusive: 94.5%
COC(=O)[C@H](Cc1ccccc1)NC(=O)N1CCN(c2ccccc2)CC1	inconclusive: 113%
COc1ccc(S(=O)(=O)Nc2nc3ccccc3s2)cc1	inactive: 99.4%
O=C(CO)N/N=C/c1c2ccccc2cc2ccccc12	inconclusive: 92.7%
CCCCOC(=O)/C=C\C(=O)OCCCC	inconclusive: 76.1%
N#C/C(=C\c1ccc(O)cc1)c1nc2ccccc2o1	inconclusive: 114%
N#Cc1cccc(C#N)c1Oc1ccc(S(=O)(=O)Nc2ccc(Cl)cc2)cc1	inconclusive: 95.8%
O=C1NN=C(c2ccccc2)CC1c1c[nH]c2ccccc12 (stereo not given)	inconclusive: 103%
CCOC(=O)CSc1ccccn1	inconclusive: 103%

Filtered by structure, the compounds so far containing four or more nitrogen atoms (seven)
SMILES	binding response (% of control)
CCN(CC)CCCNC(=O)CSc1nc2c(c(C(F)(F)F)n1)CCc1ccccc1-2	inconclusive: 96.4%
Cc1ccccc1NC(=O)c1cc([N+](=O)[O-])ccc1NCCN1C(=O)CCC1=O	inactive: 112%
CN(CC(=O)Nc1cccc(S(=O)(=O)NC2=NCCCCC2)c1)Cc1ccc(C(C)(C)C)cc1	inconclusive: 114%
COc1cccc(CN=c2c([N+](=O)[O-])nn(-c3ccccc3C)n2O)c1	inconclusive: 120%
Cc1ccc(/C=N/NC(=O)CNC(=O)c2ccc(C)c([N+](=O)[O-])c2)o1	inconclusive: 121%
CCOc1ccc(C(=O)n2cnnc2N)cc1	inconclusive: 37.5%
S=c1[nH]nc(COc2ccccc2)n1/N=C/C=C/c1ccco1	inconclusive: 78.5%

Further compounds follow.

SMILES	binding response (% of control)
Clc1ccc(/C=N\Nc2ccccc2)cc1	inconclusive: 112%
CC(=O)NCc1ccc(C(=O)CCl)cc1	inconclusive: 106%
Nc1nn(-c2cccc(F)n2)cc1-c1ccccc1	inconclusive: 92.8%
O=c1c2ccccc2nc2n1CCS2(=O)=O	inconclusive: 89.9%
CC(=O)N=c1c(C#N)cc2c(=O)n3ccccc3nc2n1CCCOC(C)C	inconclusive: -342%
Cc1ccc(NC(=O)CSc2nc3ccccc3c(=O)n2CCCC(=O)NCCCN2CCOCC2)cc1C	inactive: 100%
CN1CCN(C(=O)C2CCN(c3ncc(C(F)(F)F)cc3Cl)CC2)CC1	inconclusive: 114%
CCC(=O)Nc1ccc(C(=O)Cn2ncc(Cl)c(Cl)c2=O)cc1	inconclusive: 179%
Nc1nc2c(C(=O)N3CCOCC3)nnn2c2ccccc12	inconclusive: 45.6%
COc1ccc2nc(/C=N/NC(=O)[C@@H]3CCCN3C(=O)OC(C)(C)C)ccc2c1	inconclusive: 122%
CCc1ccc(Nc2nnc(SCn3nnc4ccccc4c3=O)s2)cc1	inactive: 97.5%
Nc1ncnc(SCc2c(F)cccc2Cl)n1	inconclusive: 103%
Cc1cccc(C)c1NC(=O)CSC(=S)N1CCCC1	inconclusive: 113%
COCCCN(C(=O)Cc1ccc(Cl)c(Cl)c1)c1c(N)n(Cc2ccccc2)c(=O)[nH]c1=O	inconclusive: 79.5%
O=C1C2CC=CCC2C(=O)N1Nc1ccccc1 (stereo not given)	inconclusive: 109%
N#CCN1CCC2(O)CCCCC2C1c1ccc2c(c1)OCO2 (stereo not given)	inconclusive: 159%
CC(CCc1ccccc1)NC(=O)CSc1ccccc1 (stereo not given)	inactive: 102%
COc1ccc(-c2[nH]c3ccccc3c2SCCN)cc1	inconclusive: -233%
CCCNc1nc(C)cc(-c2cc(C(=O)NCc3ccccc3)on2)n1	inconclusive: 117%
COc1ccc(C2=NNC(c3cccnc3)=Nc3ccc(OC)cc32)cc1	inconclusive: 106%
O=C(O)CCCCCNC(=O)C(=O)C1C(=O)Nc2ccccc21 (stereo not given)	inconclusive: 5.48%
NCCOc1ccccc1OCCN	inconclusive: 118%
CCOc1ccc(C(=O)NNC2CC(=O)N(Cc3ccc(Cl)cc3)C2=O)cc1OC (stereo not given)	inactive: 109%
N#C/C(=C(O)\C=C\c1ccccc1)c1nc2ccccc2[nH]1	inconclusive: 98%

SMILES	binding response (% of control)
CC(/C=C/c1ccccc1)=N\NC(=O)Cn1cncn1	inconclusive: 106%
CCN=c1scc(C)n1/N=C/c1ccc(O)c(O)c1O	inactive: 64.8%
O=C(C1=C[C@@H](c2ccc(C(F)(F)F)cc2)C[C@@H](OCCCCO)O1)N1CCN(Cc2ccc3c(c2)OCO3)CC1	inactive: 97.6%
O=C(Nc1nc2c(F)cc(F)cc2s1)c1ccccn1	inactive: 98.9%
Cc1cc(C)nc(NC(=O)/C=C/c2ccc(Cl)cc2)n1	inconclusive: 503%
COc1ccc(-n2c(=S)[nH]c(=O)c3cccnc32)cc1	inconclusive: 115%
COc1ccc(-c2c(C)n([O-])c3c([n+]2=O)CCCCC3)cc1OC	inconclusive: 104%
O=C(NC1CCCC1)c1n[nH]c2ccccc12	inconclusive: 108%
O=C(COC(=O)c1ccncc1)c1ccccc1	inconclusive: 97.9%
COc1ccc(N2CCN(C(=O)/C=C/c3ccco3)CC2)cc1	inconclusive: 101%
O=C(CC(Cc1ccccc1)c1ccco1)NCc1ccco1 (stereo not given)	inconclusive: 83%
CCOC(=O)Cn1c(=O)oc2cc(S(=O)(=O)N(C)c3cccc(C)c3)ccc21	inconclusive: 97.2%
COc1ccc(CCNC(=O)CCCN2C(=O)c3ccccc3C2=O)cc1	inconclusive: 97%
CC(C)(C)c1cc(C(=O)O)n(Cc2ccc(Cl)cc2Cl)n1	inconclusive: 221%
COC(=O)c1nc[nH]c1C(=O)OC	inconclusive: 100%
CC(Sc1nnc(Cc2ccc3c(c2)OCO3)o1)C(N)=O (stereo not given)	inconclusive: 88.7%
CCOC(=O)CC1(c2ccc(OC)c(OC)c2)C(=O)c2ccccc2C1=O	inconclusive: 227%
COc1cc(CCCN2C(N)=NC[C@H]2Cc2ccc(O)cc2)cc(OC)c1OC	inconclusive: 86%
O=C(Nc1ccc(C(=O)O)c(O)c1)c1ccccc1	inconclusive: 103%
CCN(C(=O)Cn1c(=O)n(-c2cc(OC)c(OC)c(OC)c2)c(=O)c2ccccc21)c1cccc(C)c1	inactive: 101%
C=CCOC(=O)C1=C(C)NC(C)=C(C(=O)OCC=C)C1c1ccc(C)o1	inconclusive: -350%
COC(=O)c1cc(NC(=O)c2cc(-c3ccc(OC)cc3)oc2C(F)(F)F)ccc1N1CCOCC1	inconclusive: 131%
CN(C)S(=O)(=O)c1cc(NC2CC(=O)N(c3ccc(F)cc3)C2=O)ccc1Cl (stereo not given)	inactive: 102%
Cc1csc(NC(=O)c2cn3ccccc3n2)n1	inconclusive: 104%

SMILES	binding response (% of control)
O=C(CN=C1NS(=O)(=O)c2ccccc21)OCC(=O)c1ccccc1	inconclusive: 121%
CC(C)C[C@H](NC(=O)NCc1ccc(F)cc1)C(=O)O	inconclusive: 77.5%
CCOC(=O)CSc1ccc(C(=O)Nc2ccc(Cl)cc2)cn1	inconclusive: 116%
O=C(NCc1c(Cl)cccc1Oc1ccccc1)c1ccccc1	inconclusive: 158%
CCOC(=O)C(C)Sc1ccc2nnc(CCNS(=O)(=O)c3ccc(C)cc3)n2n1 (stereo not given)	inactive: 96.7%
S=c1nc[nH]c2c1ncn2C1CCCO1 (stereo not given)	inconclusive: 121%
O=C(Cn1c(=O)oc2cccnc21)Nc1ccccc1Oc1ccc(Cl)cc1Cl	inconclusive: 111%
CC1(c2ccc(Cl)cc2)NC(=O)CS1 (stereo not given)	inactive: 100%
Cc1cc(C(=O)N/N=C/C=C/c2cccc([N+](=O)[O-])c2)n[nH]1	inconclusive: 123%
COc1ccc(Oc2ccc(C(F)(F)F)cc2NC(=O)c2ccc(OC)cc2)cc1	inconclusive: -354%
Cc1nc2ccccn2c1-c1nnco1	inactive: 106%
C=CCSc1nc2ccccc2c(=O)n1C1CCOC(C)(C)C1 (stereo not given)	inconclusive: 82.7%
COc1ccc(-c2cc(C(=O)NC3=NCCS3)c3ccccc3n2)cc1OC	inconclusive: 117%
CC(C)(C)S(=O)(=O)/C(C#N)=C/Nc1ccccn1	inconclusive: -229%
COc1ccc2c(c1)c(C(=O)N/N=C/c1cccc(O)c1)c(C)n2C	inactive: 102%
CSCCC(NC(=O)c1ccccc1C)C(=O)O (stereo not given)	inconclusive: 107%
Cc1ccccc1OCC(O)CN1CCN(c2ccc(Cl)cc2)CC1 (stereo not given)	inconclusive: 93.7%
O=C(O)c1ccc(Nc2nc(-c3cccnc3)nc3ccccc23)cc1	inactive: 96.3%
Cc1c(-c2nc(-c3ccc(C(C)(C)C)cc3)no2)n(C)oc1=O	inconclusive: 107%
CC(=O)Oc1cc(OC(C)=O)c2c(=O)c(-c3ccc4c(c3)OCCCO4)c(C)oc2c1	inconclusive: 76.9%
OCCN1CCN(c2cc(C(F)(F)F)nc3ccccc23)CC1	inconclusive: 118%
O=C(CCCSc1nnc(Nc2ccccc2F)s1)N1CCOCC1	inconclusive: 98.7%
Cc1nc(SCC(=O)Nc2cc(C(N)=O)cc(C(N)=O)c2)c2c(C)c(C)sc2n1	inconclusive: -25.7%
